Counter-ions that a name gives are not always drawn. The list shows a part of the results. Hit calls seldom repeat between salt and free forms of one compound.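 Kinases were expressed as nanoluciferase fusions in K562 cells and luminescence was read every 4 h between 2 and 18 h as percent of control, DMSO set to 100% and a positive control to 0%. A time point counts as decreased when the signal drops significantly (2 sigma). The hit call is the authors' own, does not follow from the count of time points alone, and its rule is not shown.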
Assays:
Assay in all cases: kinase-Nluc reporter destabilization hit call (1 = scored as downregulated) (binary); higher = compound decreases kinase abundance
Conditions in all cases: K562; 2-18 h
IRAK3 = IRAK3 (UniProt Q9Y616)
JAK1 = JAK1 (UniProt P23458)
LCK = LCK (UniProt P06239)
LIMK1 = LIMK1 (UniProt P53667)
LIMK2 = LIMK2 (UniProt P53671)
LMTK2 = LMTK2 (UniProt Q8IWU2)
LYN = LYN (UniProt P07948)
MAP2K1 = MAP2K1 (UniProt Q02750)
MAP2K2 = MAP2K2 (UniProt P36507)
MAP4K2 = MAP4K2 (UniProt Q12851)
MAPK1 = MAPK1 (UniProt P28482)
MAPK4 = MAPK4 (UniProt P31152)
MAPKAPK2 = MAPKAPK2 (UniProt P49137)
MKNK1 = MKNK1 (UniProt Q9BUB5)
NTRK2 = NTRK2 (UniProt Q16620)
NTRK3 = NTRK3 (UniProt Q16288)
PAK4 = PAK4 (UniProt O96013)
PBK = PBK (UniProt Q96KB5)
PDGFRB = PDGFRB (UniProt P09619)
PDK1 = PDK1 (UniProt Q15118)

Chains of the proteins cited; added tags and fusions are not shown. Lines headed by an entry give the natural chain unless they say otherwise; changes in a name come on top.
UniProt P23458: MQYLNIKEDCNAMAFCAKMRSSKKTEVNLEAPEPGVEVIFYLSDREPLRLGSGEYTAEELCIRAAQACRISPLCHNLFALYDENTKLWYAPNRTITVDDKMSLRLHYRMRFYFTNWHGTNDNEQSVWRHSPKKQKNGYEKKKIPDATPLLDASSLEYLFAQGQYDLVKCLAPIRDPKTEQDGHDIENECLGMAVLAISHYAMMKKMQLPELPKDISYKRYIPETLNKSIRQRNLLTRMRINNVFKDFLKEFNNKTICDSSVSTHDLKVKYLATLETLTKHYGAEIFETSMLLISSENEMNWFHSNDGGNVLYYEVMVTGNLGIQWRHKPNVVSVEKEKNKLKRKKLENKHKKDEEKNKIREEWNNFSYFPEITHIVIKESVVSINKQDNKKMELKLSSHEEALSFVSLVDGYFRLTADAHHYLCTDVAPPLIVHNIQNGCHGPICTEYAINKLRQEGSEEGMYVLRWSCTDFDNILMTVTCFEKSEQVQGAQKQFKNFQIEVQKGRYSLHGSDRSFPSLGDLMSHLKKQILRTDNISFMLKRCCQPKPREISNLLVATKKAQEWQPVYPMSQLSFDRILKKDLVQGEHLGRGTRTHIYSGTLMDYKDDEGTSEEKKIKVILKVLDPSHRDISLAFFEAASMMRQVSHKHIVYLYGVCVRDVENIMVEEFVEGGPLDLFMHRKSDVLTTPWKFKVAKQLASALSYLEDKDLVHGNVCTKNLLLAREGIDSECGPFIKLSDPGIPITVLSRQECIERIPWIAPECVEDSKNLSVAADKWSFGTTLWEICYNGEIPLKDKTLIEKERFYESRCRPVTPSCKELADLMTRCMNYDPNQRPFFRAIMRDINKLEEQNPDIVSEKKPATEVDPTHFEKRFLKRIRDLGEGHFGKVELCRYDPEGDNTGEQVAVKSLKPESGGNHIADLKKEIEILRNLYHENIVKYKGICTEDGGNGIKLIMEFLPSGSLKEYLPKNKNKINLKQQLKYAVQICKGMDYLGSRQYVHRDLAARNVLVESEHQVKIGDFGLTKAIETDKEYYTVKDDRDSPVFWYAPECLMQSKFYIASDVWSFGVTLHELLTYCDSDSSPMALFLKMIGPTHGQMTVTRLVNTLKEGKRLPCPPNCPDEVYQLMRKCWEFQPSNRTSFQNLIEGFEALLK
UniProt P06239: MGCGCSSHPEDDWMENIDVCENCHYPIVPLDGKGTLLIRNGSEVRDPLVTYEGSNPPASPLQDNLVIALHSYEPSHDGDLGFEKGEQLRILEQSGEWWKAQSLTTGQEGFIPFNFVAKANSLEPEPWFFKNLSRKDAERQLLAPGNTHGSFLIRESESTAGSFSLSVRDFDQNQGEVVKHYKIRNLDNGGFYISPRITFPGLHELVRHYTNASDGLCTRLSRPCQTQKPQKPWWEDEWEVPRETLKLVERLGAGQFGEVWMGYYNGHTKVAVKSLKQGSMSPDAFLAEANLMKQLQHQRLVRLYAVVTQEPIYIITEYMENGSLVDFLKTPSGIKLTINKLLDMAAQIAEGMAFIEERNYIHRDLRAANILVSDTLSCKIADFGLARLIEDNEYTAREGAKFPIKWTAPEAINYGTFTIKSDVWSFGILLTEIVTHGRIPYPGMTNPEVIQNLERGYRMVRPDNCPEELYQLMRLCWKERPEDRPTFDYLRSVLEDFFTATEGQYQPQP
UniProt P53667: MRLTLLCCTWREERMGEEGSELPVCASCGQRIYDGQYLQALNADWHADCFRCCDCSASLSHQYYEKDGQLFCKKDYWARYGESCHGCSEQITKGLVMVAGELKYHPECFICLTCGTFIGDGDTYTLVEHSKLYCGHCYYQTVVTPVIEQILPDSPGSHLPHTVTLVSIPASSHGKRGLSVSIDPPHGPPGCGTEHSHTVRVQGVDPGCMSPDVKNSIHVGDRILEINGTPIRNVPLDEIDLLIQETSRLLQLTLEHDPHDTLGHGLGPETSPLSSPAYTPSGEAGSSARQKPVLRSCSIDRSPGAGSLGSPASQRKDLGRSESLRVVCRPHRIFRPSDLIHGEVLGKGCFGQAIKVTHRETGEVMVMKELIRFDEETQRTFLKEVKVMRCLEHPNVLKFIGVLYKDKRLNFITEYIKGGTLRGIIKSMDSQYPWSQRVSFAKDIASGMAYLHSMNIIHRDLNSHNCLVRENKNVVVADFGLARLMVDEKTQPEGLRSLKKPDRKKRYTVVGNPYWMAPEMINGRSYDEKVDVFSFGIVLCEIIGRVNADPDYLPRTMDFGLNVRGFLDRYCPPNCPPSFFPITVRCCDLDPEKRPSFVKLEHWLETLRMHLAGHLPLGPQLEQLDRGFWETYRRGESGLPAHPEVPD
UniProt P53671: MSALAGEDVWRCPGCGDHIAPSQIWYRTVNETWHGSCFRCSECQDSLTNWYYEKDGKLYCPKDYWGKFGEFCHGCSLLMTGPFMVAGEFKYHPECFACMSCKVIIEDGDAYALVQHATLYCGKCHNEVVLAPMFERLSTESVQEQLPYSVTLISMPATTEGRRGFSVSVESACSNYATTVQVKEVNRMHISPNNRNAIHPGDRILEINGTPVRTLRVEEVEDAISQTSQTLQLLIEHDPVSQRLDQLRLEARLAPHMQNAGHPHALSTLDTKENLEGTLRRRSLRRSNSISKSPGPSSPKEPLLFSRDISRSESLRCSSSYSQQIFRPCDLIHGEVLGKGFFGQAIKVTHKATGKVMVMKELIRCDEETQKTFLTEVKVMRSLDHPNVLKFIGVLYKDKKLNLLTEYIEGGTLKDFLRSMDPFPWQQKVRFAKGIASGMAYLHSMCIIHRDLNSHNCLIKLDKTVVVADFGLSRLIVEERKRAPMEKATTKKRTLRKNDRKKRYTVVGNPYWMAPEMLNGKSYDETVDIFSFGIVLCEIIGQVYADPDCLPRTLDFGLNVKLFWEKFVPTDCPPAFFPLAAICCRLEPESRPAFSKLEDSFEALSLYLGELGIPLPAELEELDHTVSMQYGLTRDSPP
UniProt Q8IWU2: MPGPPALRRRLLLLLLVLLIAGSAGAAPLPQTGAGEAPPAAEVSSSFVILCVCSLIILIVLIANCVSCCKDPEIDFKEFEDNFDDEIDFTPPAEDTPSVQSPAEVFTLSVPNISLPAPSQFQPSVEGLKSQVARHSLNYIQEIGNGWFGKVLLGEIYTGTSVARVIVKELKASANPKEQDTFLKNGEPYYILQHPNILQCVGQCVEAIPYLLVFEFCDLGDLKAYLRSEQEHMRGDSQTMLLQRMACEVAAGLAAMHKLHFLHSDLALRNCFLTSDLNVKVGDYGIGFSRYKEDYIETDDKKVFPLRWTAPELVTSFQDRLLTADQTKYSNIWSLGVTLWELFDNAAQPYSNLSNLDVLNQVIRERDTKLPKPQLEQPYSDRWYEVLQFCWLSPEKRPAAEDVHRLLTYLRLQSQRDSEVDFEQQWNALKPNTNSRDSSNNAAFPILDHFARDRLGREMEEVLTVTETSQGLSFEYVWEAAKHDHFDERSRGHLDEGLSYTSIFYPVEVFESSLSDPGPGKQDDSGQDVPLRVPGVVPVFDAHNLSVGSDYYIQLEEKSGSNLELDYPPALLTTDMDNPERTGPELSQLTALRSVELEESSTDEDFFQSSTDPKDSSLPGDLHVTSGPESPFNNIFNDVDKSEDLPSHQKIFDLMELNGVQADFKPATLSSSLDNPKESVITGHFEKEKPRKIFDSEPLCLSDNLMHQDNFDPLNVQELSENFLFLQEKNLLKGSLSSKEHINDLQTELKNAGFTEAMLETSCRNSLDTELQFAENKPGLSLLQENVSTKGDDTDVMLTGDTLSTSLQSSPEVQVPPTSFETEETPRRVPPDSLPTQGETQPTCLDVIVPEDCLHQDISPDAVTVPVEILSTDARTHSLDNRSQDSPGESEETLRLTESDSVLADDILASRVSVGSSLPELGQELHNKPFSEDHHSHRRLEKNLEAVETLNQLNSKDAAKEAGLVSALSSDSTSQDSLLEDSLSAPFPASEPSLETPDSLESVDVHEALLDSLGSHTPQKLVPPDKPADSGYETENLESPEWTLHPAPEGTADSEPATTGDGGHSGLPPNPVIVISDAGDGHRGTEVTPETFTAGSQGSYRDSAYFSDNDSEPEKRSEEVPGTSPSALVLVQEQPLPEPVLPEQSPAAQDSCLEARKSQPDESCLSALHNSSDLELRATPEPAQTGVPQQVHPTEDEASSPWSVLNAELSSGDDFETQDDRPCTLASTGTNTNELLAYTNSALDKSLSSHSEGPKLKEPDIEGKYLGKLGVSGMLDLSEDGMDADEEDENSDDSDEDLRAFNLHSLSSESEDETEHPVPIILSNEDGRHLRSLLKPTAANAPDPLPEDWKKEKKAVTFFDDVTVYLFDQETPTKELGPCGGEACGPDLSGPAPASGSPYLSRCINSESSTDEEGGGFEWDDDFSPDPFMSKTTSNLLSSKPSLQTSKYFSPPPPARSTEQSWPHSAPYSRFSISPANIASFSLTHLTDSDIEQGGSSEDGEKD
UniProt P28482, whole entry: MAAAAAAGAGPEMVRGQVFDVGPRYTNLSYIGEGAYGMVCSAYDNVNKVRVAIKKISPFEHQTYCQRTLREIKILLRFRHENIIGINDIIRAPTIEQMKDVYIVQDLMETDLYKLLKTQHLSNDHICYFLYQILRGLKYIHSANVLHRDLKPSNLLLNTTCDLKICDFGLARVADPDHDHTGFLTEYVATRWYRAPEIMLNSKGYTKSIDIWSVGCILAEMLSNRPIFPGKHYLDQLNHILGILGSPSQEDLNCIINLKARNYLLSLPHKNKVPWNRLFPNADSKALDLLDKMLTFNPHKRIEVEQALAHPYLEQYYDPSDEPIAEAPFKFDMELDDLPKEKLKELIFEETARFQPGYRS
UniProt P31152, whole entry: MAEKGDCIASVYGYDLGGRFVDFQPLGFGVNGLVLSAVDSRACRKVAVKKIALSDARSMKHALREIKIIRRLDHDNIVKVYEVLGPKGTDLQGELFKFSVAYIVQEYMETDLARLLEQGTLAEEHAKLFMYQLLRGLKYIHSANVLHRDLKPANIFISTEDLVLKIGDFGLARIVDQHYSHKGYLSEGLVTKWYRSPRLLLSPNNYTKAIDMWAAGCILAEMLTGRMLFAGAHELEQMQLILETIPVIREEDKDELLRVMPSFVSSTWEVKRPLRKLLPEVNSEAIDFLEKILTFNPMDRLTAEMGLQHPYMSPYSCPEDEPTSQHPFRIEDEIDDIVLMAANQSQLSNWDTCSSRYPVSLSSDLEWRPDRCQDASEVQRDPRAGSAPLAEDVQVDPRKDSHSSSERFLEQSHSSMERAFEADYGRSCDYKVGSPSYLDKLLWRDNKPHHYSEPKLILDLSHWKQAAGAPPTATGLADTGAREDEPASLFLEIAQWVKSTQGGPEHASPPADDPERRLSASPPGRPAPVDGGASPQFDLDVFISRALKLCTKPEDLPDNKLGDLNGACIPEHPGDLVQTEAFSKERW
UniProt P49137, whole entry, looked up: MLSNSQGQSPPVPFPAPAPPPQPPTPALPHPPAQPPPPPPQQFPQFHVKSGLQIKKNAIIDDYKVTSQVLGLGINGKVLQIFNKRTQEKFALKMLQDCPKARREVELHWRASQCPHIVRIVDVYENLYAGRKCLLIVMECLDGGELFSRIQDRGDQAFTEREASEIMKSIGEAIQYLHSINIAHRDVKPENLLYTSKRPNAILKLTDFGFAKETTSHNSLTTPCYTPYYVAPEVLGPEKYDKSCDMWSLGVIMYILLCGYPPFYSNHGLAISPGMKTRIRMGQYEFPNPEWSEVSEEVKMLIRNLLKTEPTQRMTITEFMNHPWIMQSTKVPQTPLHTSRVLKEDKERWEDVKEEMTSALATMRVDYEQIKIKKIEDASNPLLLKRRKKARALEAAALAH
UniProt Q96KB5: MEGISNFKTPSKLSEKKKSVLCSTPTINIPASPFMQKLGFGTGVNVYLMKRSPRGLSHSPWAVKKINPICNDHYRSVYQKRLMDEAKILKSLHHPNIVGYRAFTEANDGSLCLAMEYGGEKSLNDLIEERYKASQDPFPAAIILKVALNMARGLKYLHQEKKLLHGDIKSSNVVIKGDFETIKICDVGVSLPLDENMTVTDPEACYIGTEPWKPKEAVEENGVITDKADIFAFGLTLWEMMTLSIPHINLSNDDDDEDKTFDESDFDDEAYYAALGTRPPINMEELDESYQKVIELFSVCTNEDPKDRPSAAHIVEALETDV
UniProt Q15118, whole entry, looked up: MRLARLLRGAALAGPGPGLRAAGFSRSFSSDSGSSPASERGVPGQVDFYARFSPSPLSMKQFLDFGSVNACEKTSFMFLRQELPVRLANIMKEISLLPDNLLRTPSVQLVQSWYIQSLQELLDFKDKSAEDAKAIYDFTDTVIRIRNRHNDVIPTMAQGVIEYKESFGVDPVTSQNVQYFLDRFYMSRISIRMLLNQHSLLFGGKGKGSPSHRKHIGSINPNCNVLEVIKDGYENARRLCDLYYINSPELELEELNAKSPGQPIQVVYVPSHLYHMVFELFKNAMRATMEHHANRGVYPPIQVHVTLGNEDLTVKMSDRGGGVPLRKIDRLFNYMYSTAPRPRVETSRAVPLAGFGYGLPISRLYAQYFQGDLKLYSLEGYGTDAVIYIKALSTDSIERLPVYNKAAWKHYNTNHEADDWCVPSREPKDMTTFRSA

Measured: kinase-Nluc reporter destabilization hit call

O=C(Nc1ccc(CN2CCOCC2)cc1)c1ccc(-c2cccc(Cl)c2)o1 (10 µM)
inactive: IRAK3 = 0 | JAK1 = 0 | LCK 0 | LIMK1 = 0 | LIMK2 = 0 | LMTK2 = 0 | LYN 0 | MAP2K1 = 0 | MAP2K2 = 0 | MAP4K2 = 0 | MAPK1 = 0 | MAPK4 = 0 | MAPKAPK2 = 0 | MKNK1 = 0 | NTRK2 = 0 | NTRK3 = 0 | PAK4 = 0 | PBK 0 | PDGFRB 0 | PDK1 = 0

Cc1cc(CN2CCN(c3c(Br)cnc4nc(-c5ccc(N6CCN(C)CC6)cc5)[nH]c34)CC2)no1 (2.5 µM)
inactive: IRAK3 = 0 | JAK1 = 0 | LCK 0 | LIMK1 = 0 | LIMK2 = 0 | LMTK2 = 0 | LYN 0 | MAP2K1 = 0 | MAP2K2 = 0 | MAP4K2 = 0 | MAPK1 = 0 | MAPK4 = 0 | MAPKAPK2 = 0 | MKNK1 = 0 | NTRK2 = 0 | NTRK3 = 0 | PAK4 = 0 | PBK 0 | PDGFRB 0 | PDK1 = 0

Cn1cc(-c2ccc3c(c2)CCN3C(=O)Cc2cccc(C(F)(F)F)c2)c2c(N)ncnc21 (2.5 µM)
inactive: IRAK3 = 0 | JAK1 = 0 | LCK 0 | LIMK1 = 0 | LIMK2 = 0 | LMTK2 = 0 | LYN 0 | MAP2K1 = 0 | MAP2K2 = 0 | MAP4K2 = 0 | MAPK1 = 0 | MAPK4 = 0 | MAPKAPK2 = 0 | MKNK1 = 0 | NTRK2 = 0 | NTRK3 = 0 | PAK4 = 0 | PBK 0 | PDGFRB 0 | PDK1 = 0

S=C(SSC(=S)N1CCOCC1)N1CCOCC1 (10 µM)
inactive: IRAK3 = 0 | JAK1 = 0 | LCK 0 | LIMK1 = 0 | LIMK2 = 0 | LMTK2 = 0 | LYN 0 | MAP2K1 = 0 | MAP2K2 = 0 | MAP4K2 = 0 | MAPK1 = 0 | MAPK4 = 0 | MAPKAPK2 = 0 | MKNK1 = 0 | NTRK2 = 0 | NTRK3 = 0 | PAK4 = 0 | PBK 0 | PDGFRB 0 | PDK1 = 0

CNC(=O)c1cc(COc2nnc(Nc3ccc(Cl)cc3)c3ccoc23)ccn1 [Telatinib] (10 µM)
inactive: IRAK3 = 0 | JAK1 = 0 | LCK 0 | LIMK1 = 0 | LIMK2 = 0 | LMTK2 = 0 | LYN 0 | MAP2K1 = 0 | MAP2K2 = 0 | MAP4K2 = 0 | MAPK1 = 0 | MAPK4 = 0 | MAPKAPK2 = 0 | MKNK1 = 0 | NTRK2 = 0 | NTRK3 = 0 | PAK4 = 0 | PBK 0 | PDGFRB 0 | PDK1 = 0

Oc1ccc(Nc2nc(-c3ccc(Cl)cc3)cs2)cc1 (10 µM)
inactive: IRAK3 = 0 | JAK1 = 0 | LCK 0 | LIMK1 = 0 | LIMK2 = 0 | LMTK2 = 0 | LYN 0 | MAP2K1 = 0 | MAP2K2 = 0 | MAP4K2 = 0 | MAPK1 = 0 | MAPK4 = 0 | MAPKAPK2 = 0 | MKNK1 = 0 | NTRK2 = 0 | NTRK3 = 0 | PAK4 = 0 | PBK 0 | PDGFRB 0 | PDK1 = 0

2 consecutive compounds out of the list so far:
CNC(=O)c1cc(COc2nnc(Nc3ccc(Cl)cc3)c3ccoc23)ccn1 [Telatinib] (10 µM)
inactive: IRAK3 = 0 | JAK1 = 0 | LCK 0 | LIMK1 = 0 | LIMK2 = 0 | LMTK2 = 0 | LYN 0 | MAP2K1 = 0 | MAP2K2 = 0 | MAP4K2 = 0 | MAPK1 = 0 | MAPK4 = 0 | MAPKAPK2 = 0 | MKNK1 = 0 | NTRK2 = 0 | NTRK3 = 0 | PAK4 = 0 | PBK 0 | PDGFRB 0 | PDK1 = 0

Oc1ccc(Nc2nc(-c3ccc(Cl)cc3)cs2)cc1 (10 µM)
inactive: IRAK3 = 0 | JAK1 = 0 | LCK 0 | LIMK1 = 0 | LIMK2 = 0 | LMTK2 = 0 | LYN 0 | MAP2K1 = 0 | MAP2K2 = 0 | MAP4K2 = 0 | MAPK1 = 0 | MAPK4 = 0 | MAPKAPK2 = 0 | MKNK1 = 0 | NTRK2 = 0 | NTRK3 = 0 | PAK4 = 0 | PBK 0 | PDGFRB 0 | PDK1 = 0

(listing goes on)

CCNc1nc(Nc2cc(F)c(C(=O)N3CCOCC3)cc2OC)ncc1C(F)(F)F [GNE-7915 (tosylate)] (10 µM)
inactive: IRAK3 = 0 | JAK1 = 0 | LCK 0 | LIMK1 = 0 | LIMK2 = 0 | LMTK2 = 0 | LYN 0 | MAP2K1 = 0 | MAP2K2 = 0 | MAP4K2 = 0 | MAPK1 = 0 | MAPK4 = 0 | MAPKAPK2 = 0 | MKNK1 = 0 | NTRK2 = 0 | NTRK3 = 0 | PAK4 = 0 | PBK 0 | PDGFRB 0 | PDK1 = 0

CN1CCN(c2cnc3c(C4CCN(C(=O)c5ccc(OC(F)(F)F)cc5N)CC4)ncnc3c2)CC1 (10 µM)
inactive: IRAK3 = 0 | JAK1 = 0 | LCK 0 | LIMK1 = 0 | LIMK2 = 0 | LMTK2 = 0 | LYN 0 | MAP2K1 = 0 | MAP2K2 = 0 | MAP4K2 = 0 | MAPK1 = 0 | MAPK4 = 0 | MAPKAPK2 = 0 | MKNK1 = 0 | NTRK2 = 0 | NTRK3 = 0 | PAK4 = 0 | PBK 0 | PDGFRB 0 | PDK1 = 0

CC[C@@H](Oc1nc(Oc2cc(C)cc(-c3cccc(CN)c3)c2)c(F)cc1F)C(=O)O (10 µM)
inactive: IRAK3 = 0 | JAK1 = 0 | LCK 0 | LIMK1 = 0 | LIMK2 = 0 | LMTK2 = 0 | LYN 0 | MAP2K1 = 0 | MAP2K2 = 0 | MAP4K2 = 0 | MAPK1 = 0 | MAPK4 = 0 | MAPKAPK2 = 0 | MKNK1 = 0 | NTRK2 = 0 | NTRK3 = 0 | PAK4 = 0 | PBK 0 | PDGFRB 0 | PDK1 = 0

Cc1cc2ncc(-c3ccc(O)c(O)c3)nc2cc1C [Tyrphostin AG1433] (10 µM)
inactive: IRAK3 = 0 | JAK1 = 0 | LCK 0 | LIMK1 = 0 | LIMK2 = 0 | LMTK2 = 0 | LYN 0 | MAP2K1 = 0 | MAP2K2 = 0 | MAP4K2 = 0 | MAPK1 = 0 | MAPK4 = 0 | MAPKAPK2 = 0 | MKNK1 = 0 | NTRK2 = 0 | NTRK3 = 0 | PAK4 = 0 | PBK 0 | PDGFRB 0 | PDK1 = 0

Cc1nc(-c2cn3c(n2)-c2ccc(-c4cnn(C(C)(C)C(N)=O)c4)cc2OCC3)n(C(C)C)n1 [Taselisib] (10 µM)
inactive: IRAK3 = 0 | JAK1 = 0 | LCK 0 | LIMK1 = 0 | LIMK2 = 0 | LMTK2 = 0 | LYN 0 | MAP2K1 = 0 | MAP2K2 = 0 | MAP4K2 = 0 | MAPK1 = 0 | MAPK4 = 0 | MAPKAPK2 = 0 | MKNK1 = 0 | NTRK2 = 0 | NTRK3 = 0 | PAK4 = 0 | PBK 0 | PDGFRB 0 | PDK1 = 0

Cc1ccc(OCCSc2ncccn2)c(Br)c1 [ZLN024 (hydrochloride)] (10 µM)
inactive: IRAK3 = 0 | JAK1 = 0 | LCK 0 | LIMK1 = 0 | LIMK2 = 0 | LMTK2 = 0 | LYN 0 | MAP2K1 = 0 | MAP2K2 = 0 | MAP4K2 = 0 | MAPK1 = 0 | MAPK4 = 0 | MAPKAPK2 = 0 | MKNK1 = 0 | NTRK2 = 0 | NTRK3 = 0 | PAK4 = 0 | PBK 0 | PDGFRB 0 | PDK1 = 0

CCN1CCC(n2cc(CNc3cc(Cl)c4ncc(C#N)c(Nc5ccc(F)c(Cl)c5)c4c3)nn2)CC1 [Cot inhibitor-2] (2.5 µM)
inactive: IRAK3 = 0 | JAK1 = 0 | LCK 0 | LIMK1 = 0 | LIMK2 = 0 | LMTK2 = 0 | LYN 0 | MAP2K1 = 0 | MAP2K2 = 0 | MAP4K2 = 0 | MAPK1 = 0 | MAPK4 = 0 | MAPKAPK2 = 0 | MKNK1 = 0 | NTRK2 = 0 | NTRK3 = 0 | PAK4 = 0 | PBK 0 | PDGFRB 0 | PDK1 = 0

O=C(O)CCC(=O)Nc1ccc(Br)cn1 [Bikinin] (10 µM)
inactive: IRAK3 = 0 | JAK1 = 0 | LCK 0 | LIMK1 = 0 | LIMK2 = 0 | LMTK2 = 0 | LYN 0 | MAP2K1 = 0 | MAP2K2 = 0 | MAP4K2 = 0 | MAPK1 = 0 | MAPK4 = 0 | MAPKAPK2 = 0 | MKNK1 = 0 | NTRK2 = 0 | NTRK3 = 0 | PAK4 = 0 | PBK 0 | PDGFRB 0 | PDK1 = 0

Cc1cc(O)c2c(c1)C(=O)c1cc(O)cc(O)c1C2=O [Emodin] (10 µM)
inactive: IRAK3 = 0 | JAK1 = 0 | LCK 0 | LIMK1 = 0 | LIMK2 = 0 | LMTK2 = 0 | LYN 0 | MAP2K1 = 0 | MAP2K2 = 0 | MAP4K2 = 0 | MAPK1 = 0 | MAPK4 = 0 | MAPKAPK2 = 0 | MKNK1 = 0 | NTRK2 = 0 | NTRK3 = 0 | PAK4 = 0 | PBK 0 | PDGFRB 0 | PDK1 = 0

CNc1nc(Nc2ccc(C(=O)N3CCOCC3)cc2OC)nc2[nH]cc(Cl)c12 (2.5 µM)
inactive: IRAK3 = 0 | JAK1 = 0 | LCK 0 | LIMK1 = 0 | LIMK2 = 0 | LMTK2 = 0 | LYN 0 | MAP2K1 = 0 | MAP2K2 = 0 | MAP4K2 = 0 | MAPK1 = 0 | MAPK4 = 0 | MAPKAPK2 = 0 | MKNK1 = 0 | NTRK2 = 0 | NTRK3 = 0 | PAK4 = 0 | PBK 0 | PDGFRB 0 | PDK1 = 0

CNC(=O)c1c(F)cccc1Nc1nc(Nc2cc3c(cc2OC)CCN3C(=O)CN(C)C)nc2[nH]ccc12 (10 µM)
inactive: IRAK3 = 0 | JAK1 = 0 | LCK 0 | LIMK1 = 0 | LIMK2 = 0 | LMTK2 = 0 | LYN 0 | MAP2K1 = 0 | MAP2K2 = 0 | MAP4K2 = 0 | MAPK1 = 0 | MAPK4 = 0 | MAPKAPK2 = 0 | MKNK1 = 0 | NTRK2 = 0 | NTRK3 = 0 | PAK4 = 0 | PBK 0 | PDGFRB 0 | PDK1 = 0

C[C@@H](c1ccc(-c2ccccc2)c(F)c1)c1cc(NC(=N)N2CCOCC2)on1 [Rimacalib] (10 µM)
inactive: IRAK3 = 0 | JAK1 = 0 | LCK 0 | LIMK1 = 0 | LIMK2 = 0 | LMTK2 = 0 | LYN 0 | MAP2K1 = 0 | MAP2K2 = 0 | MAP4K2 = 0 | MAPK1 = 0 | MAPK4 = 0 | MAPKAPK2 = 0 | MKNK1 = 0 | NTRK2 = 0 | NTRK3 = 0 | PAK4 = 0 | PBK 0 | PDGFRB 0 | PDK1 = 0
